Taken from: PubChem BioAssay AID1671195 (Yale University, 2021)
Test: 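Knockdowns that increase or decrease uptake of fluorescent LDL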 (primary screen). System: human Huh7 hepatoma cells. Knock-down reagent: siRNA pool against human genes, 18 nM. Timing: about 2 to 2.5 days of knockdown, then 8 h LDL uptake. Challenge: DiI-labelled LDL at 30 µg/ml for 8 h, in lipoprotein-deficient serum medium. Measurement: 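Per-cell DiI-LDL intensity by automated imaging; well means scaled to the plate median and given as a robust z-score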. Direction: robust z-score: higher = more LDL uptake after knockdown. Call rule: 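Active when two or more replicates show a robust z-score above 2 or below -2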.
This is one part, drawn at random, of about 22,000 reagents. About 1,510 of them (6.9%) count as active. 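Active includes knockdowns raising or lowering LDL uptake; positive z-scores mean more uptake, negative mean less.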 A number with no mark means an inactive call. Reagents against one gene are numbered here.

| gene | reagent no. | robust z-score, replicate 1 | robust z-score, replicate 2 | robust z-score, replicate 3 |
| --- | --- | --- | --- | --- |
| LGALS3BP | 1 | -0.583 | -1.27 | -0.597 |
| B4GALT3 | 1 | 0.748 | 0.569 | 0.18 |
| GUCA1C | 1 | -2.09 | -1.5 | 0.0024 |
| LOC389268 (retired record) | 1 | 1.84 (active) | 2.04 | 3.31 |
| CDKL4 | 1 | 0.346 | -0.909 | -0.161 |
| PCDHA12 | 1 | -0.441 | -0.0643 | -0.0585 |
| CPSF2 | 1 | 3.68 (active) | 2.27 | 3.06 |
| MAGEA10 | 1 | 1.06 | 0.337 | 0.358 |
| PRICKLE1 | 1 | 0.596 | 0.313 | -0.758 |
| SYCE1 | 1 | 1.31 | 1.18 | 0.714 |
| LOC285435 (retired record) | 1 | -0.748 | -0.684 | -0.788 |
| BPIFB3 | 1 | 6.48 (active) | 5.15 | 4.36 |
| PDCD4 | 1 | 0.689 | 1.46 | -0.701 |
| TNR | 1 | 0.226 | 0.791 | 0.94 |
| NPRL3 | 1 | -1.59 | -0.702 | 0.337 |
| LOC400662 (retired record) | 1 | 0.436 | -0.0972 | -0.013 |
| SYNE3 | 1 | 0.115 | 0.241 | 1.29 |
| SYNE3 | 2 | -1.85 | -2.13 | -1.58 |
| TGFBI | 1 | 0.619 | 0.268 | 1.11 |
| HNRNPF | 1 | -0.056 | -0.493 | -0.411 |
| SLC25A43 | 1 | -0.502 | -1.05 | -0.681 |
| CLSTN3 | 1 | -0.787 | -0.0115 | -1.08 |
| GUSBP8 | 1 | -0.217 | -0.00411 | -0.308 |
| PPP1CC | 1 | 1.47 | 0.3 | 1.68 |
| VPS41 | 1 | 3.04 (active) | 3.09 | 2.76 |
| CD300A | 1 | 0.455 | 0.132 | 0.267 |
| TBC1D9B | 1 | 1.33 | -0.669 | 1.37 |
| OR51B5 | 1 | 1.5 | 2.3 | 1.51 |
